The list is a part of this screen's results and no random one: it covers a few groups of compounds. Not every dose and run of a compound is shown. T/C: endpoint of the treated group in % of that of the vehicle group. Some entries give survivors of the animals treated and no T/C: the source files T/C as zero there, which appears to mark a toxic dose or a test without result, not a measured value. Some doses without a T/C left all or most animals alive at the check, yet need not have been tolerated: survival well below the control is almost never listed, so the zero probably covers shortened survival too. Survivors were counted at the toxicity check, usually on the fifth day, unless a day is given; later deaths do not show. Schedules are NCI's codes, read here as Q, the interval in days (D) or hours (H), X, the number of doses. For survival time, this PubChem deposit counts one and a half times the control or more as active, and values a quarter to a half above the control carry no call in these data; other NCI protocols may use other cut-offs. Some doses were run more than once; their values stand side by side, smallest first. Some T/C values are marked as having no survivor count here; that says nothing about deaths at the dose. Some T/C values carry the count of animals alive at the toxicity check (mostly the fifth day); where neither a count nor a note follows, no animal had died by that day.
Test system: BDF1 mice, P388 leukemia ip, median survival T/C
Assay: NCI In Vivo Anticancer Drug Screen. Data for tumor model P388 Leukemia (intraperitoneal) in B6D2F1 (BDF1) mice
Details: T/C endpoint: median survival time, higher T/C = longer survival
Outline: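 Each value expresses how treatment altered survival: treated-mouse outcome over vehicle-mouse outcome, both groups bearing the transplanted tumour.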

[1] = dose: 25.0 mg/kg/injection, schedule: Q01DX009 (ip), vehicle: saline with Tween-80
[2] = dose: 50.0 mg/kg/injection, schedule: Q01DX009 (ip), vehicle: Klucel (hydroxypropylcellulose) (HPC)
[3] = dose: 0.03 mg/kg/injection, schedule: Q04DX003 (ip), vehicle: saline
[4] = dose: 100.0 mg/kg/injection, schedule: Q01DX009 (ip), vehicle: Klucel (hydroxypropylcellulose) (HPC)
[5] = dose: 100.0 mg/kg/injection, schedule: Q04DX003 (ip), vehicle: Klucel (hydroxypropylcellulose) (HPC)
[6] = dose: 200.0 mg/kg/injection, schedule: Q01DX009 (ip), vehicle: Klucel (hydroxypropylcellulose) (HPC)

SMILES: O=c1[nH]cc(Nc2c([N+](=O)[O-])cc([N+](=O)[O-])cc2[N+](=O)[O-])c(=O)[nH]1
- T/C (dose: 6.25 mg/kg/injection, schedule: Q01DX009 (ip), vehicle: saline with Tween-80): 100 % of control
- T/C (dose: 12.5 mg/kg/injection, schedule: Q01DX009 (ip), vehicle: saline with Tween-80): 104 % of control
- T/C [1]: 100 % of control

SMILES: CCCCCCCCCCCCCCCCCC[N+](C)(C)C.F[P-](F)(F)(F)(F)F
- survivor count (dose: 12.5 mg/kg/injection, schedule: Q01DX009 (ip), vehicle: Klucel (hydroxypropylcellulose) (HPC)): 5 of 6
- survivor count (dose: 25.0 mg/kg/injection, schedule: Q01DX009 (ip), vehicle: Klucel (hydroxypropylcellulose) (HPC)): 3 of 6
- survivor count [2]: 0 of 6

SMILES: O[C@H](CNCCBr)[C@@H](O)CNCCBr
- T/C (dose: 0.02 mg/kg/injection, schedule: Q04DX003 (ip), vehicle: saline): 109 and 118 % of control
- T/C [3]: 118 % of control
- survivor count [3]: 6 of 6
- T/C (dose: 0.04 mg/kg/injection, schedule: Q01DX009 (ip), vehicle: saline): 147 % of control
- T/C (dose: 0.06 mg/kg/injection, schedule: Q04DX003 (ip), vehicle: saline): 263 % of control
- T/C (dose: 0.07 mg/kg/injection, schedule: Q01DX009 (ip), vehicle: saline): 150 % of control
- T/C (dose: 0.09 mg/kg/injection, schedule: Q04DX003 (ip), vehicle: saline): 272 % of control
- survivor count (dose: 0.11 mg/kg/injection, schedule: Q01DX009 (ip), vehicle: saline): 0 of 6
- survivor count (dose: 0.17 mg/kg/injection, schedule: Q01DX009 (ip), vehicle: saline): 0 of 6
- T/C (dose: 0.22 mg/kg/injection, schedule: Q04DX003 (ip), vehicle: saline): 185 % of control
- T/C (dose: 0.27 mg/kg/injection, schedule: Q01DX009 (ip), vehicle: saline): 197 % of control
- T/C (dose: 0.34 mg/kg/injection, schedule: Q04DX003 (ip), vehicle: saline): 220 % of control
- T/C (dose: 0.4 mg/kg/injection, schedule: Q01DX009 (ip), vehicle: saline): 235 % of control
- T/C (dose: 0.52 mg/kg/injection, schedule: Q04DX003 (ip), vehicle: saline): 129 % of control
- T/C (dose: 0.62 mg/kg/injection, schedule: Q01DX009 (ip), vehicle: saline): 250 % of control
- T/C (dose: 0.79 mg/kg/injection, schedule: Q04DX003 (ip), vehicle: saline): 179 % of control
- T/C (dose: 0.9 mg/kg/injection, schedule: Q04DX003 (ip), vehicle: saline): 141 % of control
- T/C (dose: 1.25 mg/kg/injection, schedule: Q01DX009 (ip), vehicle: saline): 266 % of control
- T/C (dose: 1.4 mg/kg/injection, schedule: Q04DX003 (ip), vehicle: saline): 187 % of control
- T/C (dose: 2.5 mg/kg/injection, schedule: Q01DX009 (ip), vehicle: saline): 266 % of control
- T/C (dose: 5.0 mg/kg/injection, schedule: Q01DX009 (ip), vehicle: saline): 116 % of control
- T/C (dose: 6.6 mg/kg/injection, schedule: Q04DX003 (ip), vehicle: saline): 300 % of control
- T/C (dose: 10.0 mg/kg/injection, schedule: Q01DX009 (ip), vehicle: saline): 87 % of control
- T/C (dose: 10.0 mg/kg/injection, schedule: Q04DX003 (ip), vehicle: saline): 177 and 300 % of control
- T/C (dose: 15.0 mg/kg/injection, schedule: Q04DX003 (ip), vehicle: saline): 200 % of control
- survivor count (dose: 20.0 mg/kg/injection, schedule: Q01DX009 (ip), vehicle: saline): 5 of 6
- T/C (dose: 20.0 mg/kg/injection, schedule: Q04DX003 (ip), vehicle: saline): 90 % of control [5 of 6 alive]
- survivor count (dose: 40.0 mg/kg/injection, schedule: Q04DX003 (ip), vehicle: saline): 2 of 6

SMILES: Cc1c([N+](=O)[O-])cc([N+](=O)[O-])c(-c2c([N+](=O)[O-])cc([N+](=O)[O-])c(C)c2[N+](=O)[O-])c1[N+](=O)[O-]
- T/C (dose: 100.0 mg/kg/injection, schedule: Q01DX009 (ip), vehicle: gum acacia): 103 % of control [survivor count not shown]
- T/C (dose: 100.0 mg/kg/injection, schedule: Q04DX003 (ip), vehicle: gum acacia): 96 % of control [survivor count not shown]
- T/C (dose: 200.0 mg/kg/injection, schedule: Q01DX009 (ip), vehicle: gum acacia): 100 % of control [survivor count not shown]
- T/C (dose: 200.0 mg/kg/injection, schedule: Q04DX003 (ip), vehicle: gum acacia): 100 % of control [survivor count not shown]
- T/C (dose: 400.0 mg/kg/injection, schedule: Q01DX009 (ip), vehicle: gum acacia): 107 % of control [survivor count not shown]
- T/C (dose: 400.0 mg/kg/injection, schedule: Q04DX003 (ip), vehicle: gum acacia): 96 % of control [survivor count not shown]

SMILES: CN1CC1C(C)(C)C.O=[N+]([O-])c1cc([N+](=O)[O-])c(O)c([N+](=O)[O-])c1
- T/C [2]: 95 % of control [survivor count not shown]
- T/C [4]: 100 % of control [survivor count not shown]
- T/C [5]: 100 % of control [survivor count not shown]
- T/C [6]: 105 % of control [survivor count not shown]
- T/C (dose: 200.0 mg/kg/injection, schedule: Q04DX003 (ip), vehicle: Klucel (hydroxypropylcellulose) (HPC)): 105 % of control [survivor count not shown]

SMILES: Cc1ccc(P(=S)(Cl)Cl)cc1
- T/C (dose: 25.0 mg/kg/injection, schedule: Q04DX003 (ip), vehicle: Klucel (hydroxypropylcellulose) (HPC)): 118 % of control
- T/C (dose: 50.0 mg/kg/injection, schedule: Q04DX003 (ip), vehicle: Klucel (hydroxypropylcellulose) (HPC)): 109 % of control
- T/C [5]: 104 % of control

SMILES: CCCN(CCC)CCCCCCCCCCCN1CCCCC1.O=[N+]([O-])c1cc([N+](=O)[O-])c(S(=O)(=O)O)c([N+](=O)[O-])c1
- T/C [4]: 104 % of control
- T/C [6]: 108 % of control
- survivor count (dose: 400.0 mg/kg/injection, schedule: Q01DX009 (ip), vehicle: Klucel (hydroxypropylcellulose) (HPC)): 5 of 6

SMILES: CC[C@H](C)[C@@H]1NC(=O)/C(=C(\C)O)C1=O
- T/C (dose: 50.0 mg/kg/injection, schedule: Q04DX003 (ip), vehicle: saline): 113 % of control
- survivor count (dose: 100.0 mg/kg/injection, schedule: Q04DX003 (ip), vehicle: saline): 5 of 8
- survivor count (dose: 200.0 mg/kg/injection, schedule: Q04DX003 (ip), vehicle: saline): 1 of 8
- survivor count (dose: 400.0 mg/kg/injection, schedule: Q04DX003 (ip), vehicle: saline): 0 of 8

SMILES: CN(C)C(=O)Oc1ccc(/C=N/NC(N)=S)nc1
- T/C [1]: 133 % of control
- T/C (dose: 50.0 mg/kg/injection, schedule: Q01DX009 (ip), vehicle: saline with Tween-80): 142 % of control
- T/C (dose: 100.0 mg/kg/injection, schedule: Q01DX009 (ip), vehicle: saline with Tween-80): 151 % of control
- survivor count (dose: 200.0 mg/kg/injection, schedule: Q01DX009 (ip), vehicle: saline with Tween-80): 4 of 6

— PubChem BioAssay AID328 (DTP/NCI, 2004)
